Data: publication PMC10424871
These are yes or no findings as the source states them, for the method shown. Binding seen in cells or lysates may run through a third protein. Some binding calls cover weakened binding; strength is not graded here. One block for each substance: values may come before it.

Sequences of proteins named here, by UniProt entry; tags and fusion partners are left off. A change or cut given only in a name is not applied to a line headed by its entry. A line that says so, or that is headed by a name, gives the form on record, which may keep a tag or linker.
UniProt Q7Z6Z7: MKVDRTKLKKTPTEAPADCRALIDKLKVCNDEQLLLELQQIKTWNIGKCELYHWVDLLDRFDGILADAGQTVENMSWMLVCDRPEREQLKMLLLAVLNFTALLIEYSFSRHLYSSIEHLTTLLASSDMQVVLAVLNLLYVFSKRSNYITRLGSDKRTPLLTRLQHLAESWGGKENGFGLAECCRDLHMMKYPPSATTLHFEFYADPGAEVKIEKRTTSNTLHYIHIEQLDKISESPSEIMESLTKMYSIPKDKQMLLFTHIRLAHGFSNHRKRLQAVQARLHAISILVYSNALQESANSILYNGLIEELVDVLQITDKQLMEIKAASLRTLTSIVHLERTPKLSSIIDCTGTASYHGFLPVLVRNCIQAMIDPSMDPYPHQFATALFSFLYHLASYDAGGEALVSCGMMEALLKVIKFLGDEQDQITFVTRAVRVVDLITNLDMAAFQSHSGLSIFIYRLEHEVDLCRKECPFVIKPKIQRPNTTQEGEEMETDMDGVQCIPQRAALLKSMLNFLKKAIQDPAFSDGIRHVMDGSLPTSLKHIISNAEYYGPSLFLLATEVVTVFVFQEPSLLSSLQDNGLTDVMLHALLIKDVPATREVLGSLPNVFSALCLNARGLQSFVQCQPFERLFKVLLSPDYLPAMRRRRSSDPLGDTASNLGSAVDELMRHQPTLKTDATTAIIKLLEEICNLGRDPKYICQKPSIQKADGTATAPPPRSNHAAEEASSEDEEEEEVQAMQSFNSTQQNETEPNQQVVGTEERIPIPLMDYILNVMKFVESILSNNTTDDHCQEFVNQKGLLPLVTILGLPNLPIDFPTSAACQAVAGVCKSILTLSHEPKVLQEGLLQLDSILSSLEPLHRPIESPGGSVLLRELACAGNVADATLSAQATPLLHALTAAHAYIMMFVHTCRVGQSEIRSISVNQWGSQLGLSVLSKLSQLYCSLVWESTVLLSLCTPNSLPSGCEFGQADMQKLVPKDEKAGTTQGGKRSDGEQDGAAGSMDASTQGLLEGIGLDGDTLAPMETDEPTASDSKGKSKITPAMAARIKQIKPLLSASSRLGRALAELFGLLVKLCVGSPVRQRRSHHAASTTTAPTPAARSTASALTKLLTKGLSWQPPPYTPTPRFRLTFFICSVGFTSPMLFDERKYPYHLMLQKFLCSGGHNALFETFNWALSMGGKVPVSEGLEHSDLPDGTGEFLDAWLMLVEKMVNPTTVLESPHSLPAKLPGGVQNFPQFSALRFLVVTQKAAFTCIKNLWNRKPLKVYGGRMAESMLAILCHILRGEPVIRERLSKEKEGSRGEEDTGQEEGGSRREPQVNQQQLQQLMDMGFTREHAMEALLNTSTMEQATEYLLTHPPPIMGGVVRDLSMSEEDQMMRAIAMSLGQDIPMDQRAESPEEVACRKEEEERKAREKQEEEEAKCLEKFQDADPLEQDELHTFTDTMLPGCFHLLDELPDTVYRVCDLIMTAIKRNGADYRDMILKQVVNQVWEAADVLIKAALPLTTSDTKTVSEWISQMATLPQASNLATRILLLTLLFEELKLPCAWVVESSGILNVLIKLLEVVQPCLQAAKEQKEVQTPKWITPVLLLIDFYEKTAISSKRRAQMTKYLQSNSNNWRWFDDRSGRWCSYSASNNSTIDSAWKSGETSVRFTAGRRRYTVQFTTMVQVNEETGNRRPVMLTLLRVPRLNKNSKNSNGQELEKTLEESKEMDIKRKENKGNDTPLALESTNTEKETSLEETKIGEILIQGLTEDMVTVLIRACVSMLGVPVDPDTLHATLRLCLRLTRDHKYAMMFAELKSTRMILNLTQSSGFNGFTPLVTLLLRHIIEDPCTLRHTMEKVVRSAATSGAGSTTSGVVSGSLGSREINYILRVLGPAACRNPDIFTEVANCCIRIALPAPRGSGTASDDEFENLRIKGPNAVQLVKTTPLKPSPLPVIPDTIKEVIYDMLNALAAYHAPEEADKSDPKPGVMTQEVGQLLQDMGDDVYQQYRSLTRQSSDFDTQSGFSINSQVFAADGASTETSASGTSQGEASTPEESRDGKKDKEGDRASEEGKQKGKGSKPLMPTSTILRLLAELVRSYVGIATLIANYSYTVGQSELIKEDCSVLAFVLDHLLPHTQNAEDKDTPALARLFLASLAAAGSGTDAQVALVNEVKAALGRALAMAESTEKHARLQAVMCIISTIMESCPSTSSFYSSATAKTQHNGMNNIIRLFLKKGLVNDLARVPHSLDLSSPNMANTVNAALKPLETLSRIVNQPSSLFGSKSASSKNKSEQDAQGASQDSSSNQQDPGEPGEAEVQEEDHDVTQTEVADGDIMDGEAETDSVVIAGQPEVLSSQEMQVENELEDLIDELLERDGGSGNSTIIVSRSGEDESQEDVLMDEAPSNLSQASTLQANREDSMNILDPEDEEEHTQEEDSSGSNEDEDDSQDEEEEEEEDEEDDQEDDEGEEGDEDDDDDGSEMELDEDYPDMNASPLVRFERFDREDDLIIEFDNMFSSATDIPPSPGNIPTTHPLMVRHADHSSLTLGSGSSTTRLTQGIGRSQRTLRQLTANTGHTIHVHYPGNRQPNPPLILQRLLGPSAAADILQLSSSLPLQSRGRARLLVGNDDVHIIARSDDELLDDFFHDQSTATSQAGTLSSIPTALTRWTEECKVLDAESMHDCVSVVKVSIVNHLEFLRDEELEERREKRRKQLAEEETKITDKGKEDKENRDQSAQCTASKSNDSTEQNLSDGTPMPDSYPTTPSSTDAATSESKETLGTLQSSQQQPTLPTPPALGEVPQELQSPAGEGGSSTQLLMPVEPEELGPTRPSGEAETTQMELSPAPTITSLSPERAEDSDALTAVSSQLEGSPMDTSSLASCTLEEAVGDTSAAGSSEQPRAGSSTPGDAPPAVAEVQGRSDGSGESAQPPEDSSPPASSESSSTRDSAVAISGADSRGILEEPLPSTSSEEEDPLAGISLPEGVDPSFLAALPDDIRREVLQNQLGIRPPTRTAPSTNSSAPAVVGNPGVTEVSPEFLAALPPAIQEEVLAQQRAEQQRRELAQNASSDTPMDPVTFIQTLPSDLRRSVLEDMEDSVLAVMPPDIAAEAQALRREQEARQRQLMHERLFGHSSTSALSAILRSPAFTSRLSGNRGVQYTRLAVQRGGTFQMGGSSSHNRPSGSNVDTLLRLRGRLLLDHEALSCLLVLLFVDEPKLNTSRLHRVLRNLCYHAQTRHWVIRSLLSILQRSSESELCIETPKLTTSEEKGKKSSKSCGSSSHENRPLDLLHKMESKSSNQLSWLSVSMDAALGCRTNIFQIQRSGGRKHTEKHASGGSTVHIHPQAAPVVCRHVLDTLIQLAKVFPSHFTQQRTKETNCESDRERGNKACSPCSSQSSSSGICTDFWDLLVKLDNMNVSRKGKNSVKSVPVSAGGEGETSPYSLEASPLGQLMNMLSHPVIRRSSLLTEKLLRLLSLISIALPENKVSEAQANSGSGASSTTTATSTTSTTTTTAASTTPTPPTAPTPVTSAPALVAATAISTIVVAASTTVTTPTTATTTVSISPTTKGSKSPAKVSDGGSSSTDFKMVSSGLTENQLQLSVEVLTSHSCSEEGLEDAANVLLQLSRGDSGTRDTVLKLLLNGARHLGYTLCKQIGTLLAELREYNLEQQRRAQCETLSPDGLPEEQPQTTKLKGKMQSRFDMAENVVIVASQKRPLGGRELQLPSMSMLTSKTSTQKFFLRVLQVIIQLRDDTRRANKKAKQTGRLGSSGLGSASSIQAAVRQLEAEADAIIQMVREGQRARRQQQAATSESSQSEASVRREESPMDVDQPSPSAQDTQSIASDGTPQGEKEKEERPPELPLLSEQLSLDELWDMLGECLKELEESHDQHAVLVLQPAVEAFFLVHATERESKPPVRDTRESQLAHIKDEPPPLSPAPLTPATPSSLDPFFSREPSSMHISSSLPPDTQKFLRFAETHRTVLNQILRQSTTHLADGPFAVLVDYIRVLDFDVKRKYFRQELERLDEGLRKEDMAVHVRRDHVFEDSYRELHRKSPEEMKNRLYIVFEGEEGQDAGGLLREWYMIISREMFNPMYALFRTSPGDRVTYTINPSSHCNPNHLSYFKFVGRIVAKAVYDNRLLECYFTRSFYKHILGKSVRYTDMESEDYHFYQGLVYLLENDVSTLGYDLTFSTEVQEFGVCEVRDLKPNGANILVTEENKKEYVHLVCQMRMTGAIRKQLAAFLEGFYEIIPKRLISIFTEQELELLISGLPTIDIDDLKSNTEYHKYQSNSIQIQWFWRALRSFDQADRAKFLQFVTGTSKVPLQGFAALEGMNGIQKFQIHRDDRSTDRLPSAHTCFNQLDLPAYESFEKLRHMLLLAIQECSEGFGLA
FLAG-tagged AMBRA1 (pCMV6-AMBRA1-Myc-DDK) (Q9C0C7-4, form named): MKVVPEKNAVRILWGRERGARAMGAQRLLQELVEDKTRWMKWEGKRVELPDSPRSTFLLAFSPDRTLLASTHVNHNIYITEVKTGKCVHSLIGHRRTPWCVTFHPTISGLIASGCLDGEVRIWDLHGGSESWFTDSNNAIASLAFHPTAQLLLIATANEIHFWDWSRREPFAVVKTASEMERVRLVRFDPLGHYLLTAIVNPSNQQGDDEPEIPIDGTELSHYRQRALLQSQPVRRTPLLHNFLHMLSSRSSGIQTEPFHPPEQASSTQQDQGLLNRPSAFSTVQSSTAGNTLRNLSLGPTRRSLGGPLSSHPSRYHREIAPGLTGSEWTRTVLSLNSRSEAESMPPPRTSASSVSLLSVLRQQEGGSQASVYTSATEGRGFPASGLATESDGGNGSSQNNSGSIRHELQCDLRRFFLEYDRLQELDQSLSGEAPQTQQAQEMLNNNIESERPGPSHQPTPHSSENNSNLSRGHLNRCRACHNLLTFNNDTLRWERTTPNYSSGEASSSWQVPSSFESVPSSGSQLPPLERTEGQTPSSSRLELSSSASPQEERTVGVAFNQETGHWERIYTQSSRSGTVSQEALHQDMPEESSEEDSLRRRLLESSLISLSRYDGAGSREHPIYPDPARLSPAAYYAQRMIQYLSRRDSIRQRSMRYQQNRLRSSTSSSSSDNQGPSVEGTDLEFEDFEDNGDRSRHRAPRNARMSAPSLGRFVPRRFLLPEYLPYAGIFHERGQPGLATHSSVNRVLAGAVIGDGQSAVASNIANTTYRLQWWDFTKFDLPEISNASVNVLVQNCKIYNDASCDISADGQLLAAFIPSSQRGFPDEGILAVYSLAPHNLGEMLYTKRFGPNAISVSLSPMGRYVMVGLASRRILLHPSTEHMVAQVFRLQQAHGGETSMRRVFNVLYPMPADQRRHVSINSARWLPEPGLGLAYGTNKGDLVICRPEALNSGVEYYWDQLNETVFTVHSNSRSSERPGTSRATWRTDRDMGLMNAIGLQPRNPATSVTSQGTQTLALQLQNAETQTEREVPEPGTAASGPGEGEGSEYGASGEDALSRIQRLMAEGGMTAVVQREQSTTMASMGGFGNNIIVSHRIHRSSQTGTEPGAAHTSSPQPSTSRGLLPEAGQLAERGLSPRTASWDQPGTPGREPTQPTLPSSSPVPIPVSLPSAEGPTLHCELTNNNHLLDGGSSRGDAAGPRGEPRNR
UniProt O15205: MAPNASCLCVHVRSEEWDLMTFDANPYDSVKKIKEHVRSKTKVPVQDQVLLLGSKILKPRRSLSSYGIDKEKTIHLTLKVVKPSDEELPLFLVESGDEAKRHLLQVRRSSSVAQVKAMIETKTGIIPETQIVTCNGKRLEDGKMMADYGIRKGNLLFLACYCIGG
HA-FAT10-AV (O15205, form named): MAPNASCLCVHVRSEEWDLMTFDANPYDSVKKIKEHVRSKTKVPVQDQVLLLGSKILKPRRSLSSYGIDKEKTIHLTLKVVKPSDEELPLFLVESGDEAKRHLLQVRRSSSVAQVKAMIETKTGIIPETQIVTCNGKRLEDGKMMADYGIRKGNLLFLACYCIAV

Legend:
[1] = target: HA-tagged N-terminally truncated HUWE1 (HUWE1ΔN, amino acid residues 2474-4374) (UniProt Q7Z6Z7); assay: co-IP; HEK293 cells transfected with HA-HUWE1ΔN and FLAG-FAT10, with or without TNF for 24 h; cleared lysate (20 mM Tris/HCl pH 7.6, 50 mM NaCl, 10 mM MgCl2, 1% NP-40), IP with anti-HA agarose at 4°C, blot anti-FLAG; samples analysed under non-reducing and reducing (4% β-ME) conditions
[2] = target: FLAG-tagged AMBRA1 (pCMV6-AMBRA1-Myc-DDK) (UniProt Q9C0C7); assay: co-IP; HEK293 HUWE1-KO cells transfected with AMBRA1-FLAG and His-HUWE1-HECT or His-HUWE1ΔN, without or with tagless FAT10 or FAT10-AV; IP FLAG, blot anti-HUWE1 (ARF-BP1)
[3] = target: FLAG-tagged AMBRA1 (pCMV6-AMBRA1-Myc-DDK) (UniProt Q9C0C7); assay: co-IP; reverse immunoprecipitation: HEK293 cells transfected with AMBRA1-FLAG and HA-ubiquitin or HA-FAT10; cleared lysate, IP with Anti-FLAG M2 Affinity Gel, blot anti-HA
HA-FAT10-AV = HA-FAT10-AV (UniProt O15205); assay: co-IP; HEK293 cells transfected with AMBRA1-FLAG and HA-FAT10, HA-FAT10-AV or HA-ubiquitin; cleared lysate, IP with anti-HA agarose, blot anti-FLAG
HA-FAT10 = HA-FAT10 (UniProt O15205); assay: as above
[4] = target: FLAG-tagged AMBRA1 (pCMV6-AMBRA1-Myc-DDK) (UniProt Q9C0C7); assay: co-IP; HEK293 wild type cells transfected with AMBRA1-FLAG, with or without TNF and IFN-γ for 24 h (induces endogenous FAT10); IP of AMBRA1-FLAG, blot anti-HUWE1 (ARF-BP1)

- binding [1]: binds
Substance: 6His-3xFLAG-tagged FAT10 (from UniProt O15205 1-165)

- binding [2]: binds
Substance: 6His-tagged HUWE1ΔN (amino acid residues 2474-4374) (from UniProt Q7Z6Z7 2474-4374) (domain or fragment)

- binding (HA-FAT10-AV): binds
- binding (HA-FAT10): binds
Substance: FLAG-tagged AMBRA1 (pCMV6-AMBRA1-Myc-DDK) (from UniProt Q9C0C7-4 1-1208)

- binding [2]: binds
Substance: 6His-tagged HUWE1-HECT (amino acid residues 3993-4374) (from UniProt Q7Z6Z7 3993-4374) (domain or fragment)

Second part, the substance before the results:

Substance: HA-FAT10 (from UniProt O15205 1-165)
- binding [3]: binds

Substance: endogenous HUWE1 (from UniProt Q7Z6Z7 1-4374)
- binding [4]: binds
